Measured data: PubChem BioAssay AID1259308 (NCATS, 2017)
Aim: 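Knock-downs that increase output of a recombinant reporter protein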 (primary screen). System: human HEK293 embryonic kidney cells stably expressing firefly luciferase (HEK-CMV-Luc2-Hygro). Reagents: single siRNA against human genes, 0.8 pmol siRNA per well. Timing: 72 h. Measurement: 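Luciferase light (ONE-Glo) measured on one replicate plate set and viability (CellTiter-Glo) on the other, scaled to a negative control siRNA, with robust z-scores and luciferase per cell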. Reading the numbers: total luciferase, z-score and total luciferase, % of control: higher = more reporter protein produced; luciferase per cell, z-score: higher = more reporter output per viable cell. Call rule: 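An siRNA counts as active if its total luciferase robust z-score exceeds 3; genes with two or more such siRNAs out of three were retested with fresh siRNAs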. Meaning of the calls: active = raised luciferase; inactive = no rise.
Here is a random part of about 59,000 deposited reagents. About 1,510 of all reagents (2.6%) were called active. 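Calls use total luciferase alone and ignore viability, so some active siRNAs may act by altering cell number.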 A number with no mark means an inactive call. The numbers tell different reagents against one gene apart. Not all columns of the deposit are shown. Reagent sequences are not shown.

The opening 7 entries, ahead of the listing:
gene	reagent	total luciferase, z-score	total luciferase, % of control	luciferase per cell, z-score
SMC3 (GeneID 9126)	1	0.289	87.6	-0.458
SMC3 (GeneID 9126)	2	-0.901	64	-1.23
SMC3 (GeneID 9126)	3	-0.593	70.1	-0.757
STARD13 (GeneID 90627)	1	-0.0329	81.2	-0.546
STARD13 (GeneID 90627)	2	1.39	109	1.12
STARD13 (GeneID 90627)	3	0.126	84.4	0.294
SURF6 (GeneID 6838)	1	-0.631	69.3	-0.705

The listing, from the start:
gene	reagent	total luciferase, z-score	total luciferase, % of control	luciferase per cell, z-score
SMC3 (GeneID 9126)	1	0.289	87.6	-0.458
SMC3 (GeneID 9126)	2	-0.901	64	-1.23
SMC3 (GeneID 9126)	3	-0.593	70.1	-0.757
STARD13 (GeneID 90627)	1	-0.0329	81.2	-0.546
STARD13 (GeneID 90627)	2	1.39	109	1.12
STARD13 (GeneID 90627)	3	0.126	84.4	0.294
SURF6 (GeneID 6838)	1	-0.631	69.3	-0.705
SURF6 (GeneID 6838)	2	0.347	88.8	0.121
SURF6 (GeneID 6838)	3	0.37	89.2	-0.293
ABO (GeneID 28)	1	-0.117	79.6	-0.212
ABO (GeneID 28)	2	-0.366	74.6	-0.454
ABO (GeneID 28)	3	1.63	114	0.726
KLRC1 (GeneID 3821)	1	-0.303	75.9	0.806
KLRC1 (GeneID 3821)	2	-0.768	66.6	-0.899
KLRC1 (GeneID 3821)	3	-0.0229	81.4	0.0326
C8orf44 (GeneID 56260)	1	-0.187	78.2	-0.12
C8orf44 (GeneID 56260)	2	0.149	84.9	-0.588
C8orf44 (GeneID 56260)	3	0.14	84.7	-0.416
ULK3 (GeneID 25989)	1	-1.66	48.9	-1.08
ULK3 (GeneID 25989)	2	1.11	104	0.221
ULK3 (GeneID 25989)	3	-0.341	75.1	-0.0477
LINC01104 (GeneID 150577)	1	0.381	89.5	0.0077
LINC01104 (GeneID 150577)	2	0.26	87.1	-0.39
LINC01104 (GeneID 150577)	3	-2.33	35.6	-1.09
POMT1 (GeneID 10585)	1	1.7	116	0.922
POMT1 (GeneID 10585)	2	-0.0649	80.6	-0.918
POMT1 (GeneID 10585)	3	-0.858	64.8	-1.1
TNIP1 (GeneID 10318)	1	-0.0151	81.6	0.551
TNIP1 (GeneID 10318)	2	3.69 (active)	155	2.97
TNIP1 (GeneID 10318)	3	-0.746	67	-1.04
NGFR (GeneID 4804)	1	-0.532	71.3	-0.418
NGFR (GeneID 4804)	2	-0.0683	80.5	0.217
NGFR (GeneID 4804)	3	-0.667	68.6	0.0822
JPT1 (GeneID 51155)	1	0.955	101	1.48
JPT1 (GeneID 51155)	2	1.24	107	0.968
JPT1 (GeneID 51155)	3	-0.924	63.5	-1.15
CARINH (GeneID 441108)	1	2.3	128	2.25
CARINH (GeneID 441108)	2	1.87	119	2.3
CARINH (GeneID 441108)	3	-0.364	74.6	-0.0455
CLCN4 (GeneID 1183)	1	-0.183	78.2	-0.688
CLCN4 (GeneID 1183)	2	2.02	122	1.54
CLCN4 (GeneID 1183)	3	0.394	89.7	-0.0122
LOC100287477 (GeneID 100287477)	1	1.7	116	1.01
LOC100287477 (GeneID 100287477)	2	1.09	104	1.34
LOC100287477 (GeneID 100287477)	3	-0.162	78.7	-0.605
N4BP3 (GeneID 23138)	1	1.96	121	0.637
N4BP3 (GeneID 23138)	2	0.598	93.8	1.3
N4BP3 (GeneID 23138)	3	1.47	111	1.44
AACS (GeneID 65985)	1	1.01	102	0.768
AACS (GeneID 65985)	2	-0.0186	81.5	-0.182
AACS (GeneID 65985)	3	-1.99	42.4	-1.43
SNHG32 (GeneID 50854)	1	-1.04	61.2	-0.633
SNHG32 (GeneID 50854)	2	3.35 (active)	149	2.16
SNHG32 (GeneID 50854)	3	2.3	128	1.57
EXOC8 (GeneID 149371)	1	0.357	89	0.485
EXOC8 (GeneID 149371)	2	0.11	84.1	0.199
EXOC8 (GeneID 149371)	3	1.05	103	1.02
